Experimental data published in publication PMC12504663.
No constants are given. Whether binding was seen depends on the method and setting. Binding seen in cells or lysates may run through a third protein. Some results given as binding are weak or reduced against the parent protein; the word gives no strength.

Biological target: T1, lysosome-associated membrane protein type 2A (mouse (endogenous in C2C12)) (UniProt P17047)
T1 sequence: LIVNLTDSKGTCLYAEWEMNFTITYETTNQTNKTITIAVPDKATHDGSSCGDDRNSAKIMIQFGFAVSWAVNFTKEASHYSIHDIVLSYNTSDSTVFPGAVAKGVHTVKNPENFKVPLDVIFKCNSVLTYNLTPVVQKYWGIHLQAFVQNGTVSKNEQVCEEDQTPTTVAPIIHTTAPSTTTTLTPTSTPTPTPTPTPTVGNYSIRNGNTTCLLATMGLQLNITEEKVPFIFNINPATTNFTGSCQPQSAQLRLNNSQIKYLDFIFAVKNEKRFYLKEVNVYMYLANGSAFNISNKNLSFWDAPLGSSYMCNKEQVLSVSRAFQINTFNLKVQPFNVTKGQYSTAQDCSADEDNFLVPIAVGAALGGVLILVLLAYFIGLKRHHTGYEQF
Assay: co-IP; Co-IP in C2C12 myotubes; precipitating antibody, bait and buffer not described in the text shown

B1: C1q/TNF-related protein 9 (protein, UniProt Q4ZJN1 20-333)
chain: QDTCRQGHSGIPGNPGHNGLPGRDGRDGAKGDKGDAGEPGHPGGPGKDGIRGEKGEPGADGRVEAKGIKGDPGSRGSPGKHGPKGSIGPTGEQGLPGETGPQGQKGDKGEVGPTGPEGLMGSTGPLGPKGLPGPMGPIGKPGPRGEAGPMGPQGEPGVRGMRGWKGDRGEKGKVGEAPLVPKSAFTVGLTVISKFPPPDAPIKFDKILYNELNHYNVATGKFTCHVAGVYYFTYHITVFSRNVQVSLVKNGVKVLHTKDSYMSSEDQASGGIVQELKLGDEVWMQVTGGERFNGLFADEDDDTTFTGFLLFSSS
B1 was tested, and the binding was “binds”.
